These are yes or no findings as the source states them, for the method shown. A result given as binding can be weak or reduced; the word gives no strength.
How the values were obtained:
[1] = target: HLA-DRB1*04:01 monomeric protein (human); experiment: competition assay against the HA peptide, DELFIA
[2] = target: HLA-DRB1*04:01 monomeric protein (human); experiment: competition assay against the HA peptide, DELFIA (FIG. 5)

SAVRLQSSVPGVR [vimentin 66-78 mimic with a glutamine in position 71 (SEQ ID NO. 6)]
binding [1]: binds
binding [2]: binds

SAFRLQSSVPGVR
binding [1]: binds
binding [2]: binds

Reference: patent US20250340616A1, “NOVEL PEPTIDE MIMICS AND THEIR USE” (STIFTELSEN VECTIS, priority 2021, published 2025)
